{"sequences": {"note": "Sequences of proteins named here, by UniProt entry; tags and fusion partners are left off.", "UniProt P72350": "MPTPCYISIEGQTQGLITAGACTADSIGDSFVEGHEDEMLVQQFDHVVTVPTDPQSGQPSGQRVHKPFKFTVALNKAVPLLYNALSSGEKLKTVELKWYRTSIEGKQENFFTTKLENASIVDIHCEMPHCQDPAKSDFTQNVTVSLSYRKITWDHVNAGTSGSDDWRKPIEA"}, "source": "paper PMC5813253", "molecular_target": "Hcp (V. cholerae) (UniProt P72350)", "assay": "cryo-EM structure", "note": "No constants are given. Whether binding was seen depends on the method and setting. Some entries that bind do so weakly or less than the wild type.", "data": [{"substance": "Hcp (from UniProt P72350 1-172)", "values": [{"measurement": "binding", "result": "binds"}]}]}
